Results as given in the supplement of paper PMC10849652.
The other results are listed elsewhere or left out.

The chains behind the UniProt entries cited, without tags or fusion partners. Where a name states a change or a piece, a line headed by the entry shows the natural chain unless it says otherwise.
UniProt Q01433: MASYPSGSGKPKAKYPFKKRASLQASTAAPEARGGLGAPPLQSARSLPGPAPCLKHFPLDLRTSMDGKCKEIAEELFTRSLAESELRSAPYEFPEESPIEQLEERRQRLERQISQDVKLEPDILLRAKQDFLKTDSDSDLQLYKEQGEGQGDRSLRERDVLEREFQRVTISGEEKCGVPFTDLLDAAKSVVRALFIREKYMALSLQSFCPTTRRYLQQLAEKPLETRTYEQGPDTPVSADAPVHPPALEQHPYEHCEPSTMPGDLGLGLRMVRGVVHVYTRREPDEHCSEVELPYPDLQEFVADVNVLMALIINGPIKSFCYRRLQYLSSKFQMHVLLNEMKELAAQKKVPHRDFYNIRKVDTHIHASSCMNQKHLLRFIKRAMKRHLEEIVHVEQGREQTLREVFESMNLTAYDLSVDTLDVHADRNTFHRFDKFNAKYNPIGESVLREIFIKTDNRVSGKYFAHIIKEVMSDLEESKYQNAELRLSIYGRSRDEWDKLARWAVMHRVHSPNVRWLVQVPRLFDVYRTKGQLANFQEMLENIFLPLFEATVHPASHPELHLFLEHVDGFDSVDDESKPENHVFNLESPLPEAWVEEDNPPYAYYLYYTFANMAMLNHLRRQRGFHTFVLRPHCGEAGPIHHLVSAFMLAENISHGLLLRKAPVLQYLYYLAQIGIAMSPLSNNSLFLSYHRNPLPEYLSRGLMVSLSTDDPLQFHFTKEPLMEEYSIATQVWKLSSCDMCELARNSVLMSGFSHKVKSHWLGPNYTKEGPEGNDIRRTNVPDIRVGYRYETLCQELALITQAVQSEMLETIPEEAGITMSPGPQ
UniProt P04075: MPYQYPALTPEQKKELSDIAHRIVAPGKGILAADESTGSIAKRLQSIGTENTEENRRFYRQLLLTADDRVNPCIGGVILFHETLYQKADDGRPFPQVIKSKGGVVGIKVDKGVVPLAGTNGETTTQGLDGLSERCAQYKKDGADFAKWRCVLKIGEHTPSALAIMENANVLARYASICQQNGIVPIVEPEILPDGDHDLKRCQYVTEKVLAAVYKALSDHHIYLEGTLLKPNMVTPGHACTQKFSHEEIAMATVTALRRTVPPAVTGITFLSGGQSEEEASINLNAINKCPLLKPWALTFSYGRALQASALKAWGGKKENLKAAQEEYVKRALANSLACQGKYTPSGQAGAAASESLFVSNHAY
UniProt Q9H1A4, whole entry, looked up: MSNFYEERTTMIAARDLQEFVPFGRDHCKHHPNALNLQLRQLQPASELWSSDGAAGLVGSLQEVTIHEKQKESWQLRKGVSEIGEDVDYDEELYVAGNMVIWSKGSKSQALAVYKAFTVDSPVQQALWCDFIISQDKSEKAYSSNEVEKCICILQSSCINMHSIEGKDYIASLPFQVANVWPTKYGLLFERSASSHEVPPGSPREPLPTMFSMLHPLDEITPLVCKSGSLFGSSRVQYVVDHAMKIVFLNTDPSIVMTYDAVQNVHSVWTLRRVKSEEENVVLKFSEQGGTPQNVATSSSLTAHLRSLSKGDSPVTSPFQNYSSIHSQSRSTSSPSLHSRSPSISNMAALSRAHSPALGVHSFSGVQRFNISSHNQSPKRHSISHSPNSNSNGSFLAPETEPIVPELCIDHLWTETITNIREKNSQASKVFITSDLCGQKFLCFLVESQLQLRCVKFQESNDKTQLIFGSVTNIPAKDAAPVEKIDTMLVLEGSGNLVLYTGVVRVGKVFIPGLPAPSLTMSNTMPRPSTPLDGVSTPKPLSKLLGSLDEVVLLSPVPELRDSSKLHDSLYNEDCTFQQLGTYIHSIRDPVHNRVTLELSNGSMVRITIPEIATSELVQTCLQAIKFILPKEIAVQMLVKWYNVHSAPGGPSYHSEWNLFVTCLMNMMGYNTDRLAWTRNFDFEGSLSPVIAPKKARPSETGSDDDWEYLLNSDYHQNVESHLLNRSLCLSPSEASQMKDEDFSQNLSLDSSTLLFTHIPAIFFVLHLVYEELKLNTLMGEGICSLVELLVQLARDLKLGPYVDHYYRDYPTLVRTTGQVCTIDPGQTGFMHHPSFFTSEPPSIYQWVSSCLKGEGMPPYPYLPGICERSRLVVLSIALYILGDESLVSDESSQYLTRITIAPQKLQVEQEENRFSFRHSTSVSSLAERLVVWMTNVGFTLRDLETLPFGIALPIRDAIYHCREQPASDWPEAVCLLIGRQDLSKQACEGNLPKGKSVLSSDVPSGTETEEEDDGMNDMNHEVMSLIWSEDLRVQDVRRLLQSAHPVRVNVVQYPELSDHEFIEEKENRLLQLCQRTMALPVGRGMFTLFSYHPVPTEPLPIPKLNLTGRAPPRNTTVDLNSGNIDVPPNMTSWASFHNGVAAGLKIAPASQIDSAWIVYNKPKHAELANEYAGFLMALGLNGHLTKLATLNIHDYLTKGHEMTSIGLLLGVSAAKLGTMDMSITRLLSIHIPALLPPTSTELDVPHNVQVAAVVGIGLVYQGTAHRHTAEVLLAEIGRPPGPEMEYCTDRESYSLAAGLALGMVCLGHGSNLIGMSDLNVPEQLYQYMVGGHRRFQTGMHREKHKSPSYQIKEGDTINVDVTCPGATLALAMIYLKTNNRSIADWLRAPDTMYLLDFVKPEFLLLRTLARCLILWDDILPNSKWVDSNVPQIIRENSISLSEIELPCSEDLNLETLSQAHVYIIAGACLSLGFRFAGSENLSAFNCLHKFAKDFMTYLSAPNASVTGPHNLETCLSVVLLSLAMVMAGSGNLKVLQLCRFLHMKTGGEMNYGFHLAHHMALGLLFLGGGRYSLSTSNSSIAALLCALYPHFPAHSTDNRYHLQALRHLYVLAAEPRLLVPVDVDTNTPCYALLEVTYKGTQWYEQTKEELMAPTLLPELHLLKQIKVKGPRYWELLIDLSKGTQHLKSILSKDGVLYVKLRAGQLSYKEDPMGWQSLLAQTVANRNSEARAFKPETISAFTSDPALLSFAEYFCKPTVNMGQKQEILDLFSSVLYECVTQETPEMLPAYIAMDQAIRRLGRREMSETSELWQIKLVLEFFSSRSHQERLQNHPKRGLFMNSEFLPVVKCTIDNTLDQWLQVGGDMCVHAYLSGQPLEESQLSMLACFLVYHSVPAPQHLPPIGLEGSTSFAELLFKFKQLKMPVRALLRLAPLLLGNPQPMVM
UniProt P08758: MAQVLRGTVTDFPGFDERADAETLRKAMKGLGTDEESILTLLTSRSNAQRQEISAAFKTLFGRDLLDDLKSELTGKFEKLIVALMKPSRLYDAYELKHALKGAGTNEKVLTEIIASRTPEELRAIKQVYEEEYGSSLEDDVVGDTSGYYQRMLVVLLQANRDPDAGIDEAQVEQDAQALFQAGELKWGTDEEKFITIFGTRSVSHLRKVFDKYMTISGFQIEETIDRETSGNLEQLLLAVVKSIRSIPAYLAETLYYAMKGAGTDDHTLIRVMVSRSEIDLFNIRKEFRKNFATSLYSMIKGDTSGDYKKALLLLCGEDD
UniProt O15084: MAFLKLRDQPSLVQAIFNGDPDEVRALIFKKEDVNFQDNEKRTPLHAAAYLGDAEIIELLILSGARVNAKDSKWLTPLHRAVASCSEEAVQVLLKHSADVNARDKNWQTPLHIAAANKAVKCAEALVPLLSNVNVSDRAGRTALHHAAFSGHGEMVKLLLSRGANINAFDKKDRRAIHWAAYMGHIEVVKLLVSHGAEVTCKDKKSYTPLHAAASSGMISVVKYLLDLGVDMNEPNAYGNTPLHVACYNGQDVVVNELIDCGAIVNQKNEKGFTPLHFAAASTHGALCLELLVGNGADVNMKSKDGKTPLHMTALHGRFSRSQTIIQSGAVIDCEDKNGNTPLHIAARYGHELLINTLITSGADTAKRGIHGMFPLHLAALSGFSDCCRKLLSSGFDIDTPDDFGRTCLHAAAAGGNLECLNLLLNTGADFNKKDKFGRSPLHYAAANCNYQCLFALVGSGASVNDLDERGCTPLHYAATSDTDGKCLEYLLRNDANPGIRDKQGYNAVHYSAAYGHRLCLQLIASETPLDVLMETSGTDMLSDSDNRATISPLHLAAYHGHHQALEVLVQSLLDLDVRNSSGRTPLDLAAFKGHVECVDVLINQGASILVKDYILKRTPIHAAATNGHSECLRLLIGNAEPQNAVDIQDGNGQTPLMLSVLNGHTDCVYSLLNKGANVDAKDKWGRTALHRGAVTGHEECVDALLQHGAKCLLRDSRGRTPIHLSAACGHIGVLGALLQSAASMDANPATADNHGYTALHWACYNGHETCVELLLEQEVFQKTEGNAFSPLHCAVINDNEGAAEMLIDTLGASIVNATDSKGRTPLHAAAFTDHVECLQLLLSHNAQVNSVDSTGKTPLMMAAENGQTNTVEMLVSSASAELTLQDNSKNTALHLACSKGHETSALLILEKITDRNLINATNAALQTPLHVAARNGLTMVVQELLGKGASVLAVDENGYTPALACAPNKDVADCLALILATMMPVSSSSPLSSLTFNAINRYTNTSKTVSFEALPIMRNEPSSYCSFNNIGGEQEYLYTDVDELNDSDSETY
UniProt Q96Q42: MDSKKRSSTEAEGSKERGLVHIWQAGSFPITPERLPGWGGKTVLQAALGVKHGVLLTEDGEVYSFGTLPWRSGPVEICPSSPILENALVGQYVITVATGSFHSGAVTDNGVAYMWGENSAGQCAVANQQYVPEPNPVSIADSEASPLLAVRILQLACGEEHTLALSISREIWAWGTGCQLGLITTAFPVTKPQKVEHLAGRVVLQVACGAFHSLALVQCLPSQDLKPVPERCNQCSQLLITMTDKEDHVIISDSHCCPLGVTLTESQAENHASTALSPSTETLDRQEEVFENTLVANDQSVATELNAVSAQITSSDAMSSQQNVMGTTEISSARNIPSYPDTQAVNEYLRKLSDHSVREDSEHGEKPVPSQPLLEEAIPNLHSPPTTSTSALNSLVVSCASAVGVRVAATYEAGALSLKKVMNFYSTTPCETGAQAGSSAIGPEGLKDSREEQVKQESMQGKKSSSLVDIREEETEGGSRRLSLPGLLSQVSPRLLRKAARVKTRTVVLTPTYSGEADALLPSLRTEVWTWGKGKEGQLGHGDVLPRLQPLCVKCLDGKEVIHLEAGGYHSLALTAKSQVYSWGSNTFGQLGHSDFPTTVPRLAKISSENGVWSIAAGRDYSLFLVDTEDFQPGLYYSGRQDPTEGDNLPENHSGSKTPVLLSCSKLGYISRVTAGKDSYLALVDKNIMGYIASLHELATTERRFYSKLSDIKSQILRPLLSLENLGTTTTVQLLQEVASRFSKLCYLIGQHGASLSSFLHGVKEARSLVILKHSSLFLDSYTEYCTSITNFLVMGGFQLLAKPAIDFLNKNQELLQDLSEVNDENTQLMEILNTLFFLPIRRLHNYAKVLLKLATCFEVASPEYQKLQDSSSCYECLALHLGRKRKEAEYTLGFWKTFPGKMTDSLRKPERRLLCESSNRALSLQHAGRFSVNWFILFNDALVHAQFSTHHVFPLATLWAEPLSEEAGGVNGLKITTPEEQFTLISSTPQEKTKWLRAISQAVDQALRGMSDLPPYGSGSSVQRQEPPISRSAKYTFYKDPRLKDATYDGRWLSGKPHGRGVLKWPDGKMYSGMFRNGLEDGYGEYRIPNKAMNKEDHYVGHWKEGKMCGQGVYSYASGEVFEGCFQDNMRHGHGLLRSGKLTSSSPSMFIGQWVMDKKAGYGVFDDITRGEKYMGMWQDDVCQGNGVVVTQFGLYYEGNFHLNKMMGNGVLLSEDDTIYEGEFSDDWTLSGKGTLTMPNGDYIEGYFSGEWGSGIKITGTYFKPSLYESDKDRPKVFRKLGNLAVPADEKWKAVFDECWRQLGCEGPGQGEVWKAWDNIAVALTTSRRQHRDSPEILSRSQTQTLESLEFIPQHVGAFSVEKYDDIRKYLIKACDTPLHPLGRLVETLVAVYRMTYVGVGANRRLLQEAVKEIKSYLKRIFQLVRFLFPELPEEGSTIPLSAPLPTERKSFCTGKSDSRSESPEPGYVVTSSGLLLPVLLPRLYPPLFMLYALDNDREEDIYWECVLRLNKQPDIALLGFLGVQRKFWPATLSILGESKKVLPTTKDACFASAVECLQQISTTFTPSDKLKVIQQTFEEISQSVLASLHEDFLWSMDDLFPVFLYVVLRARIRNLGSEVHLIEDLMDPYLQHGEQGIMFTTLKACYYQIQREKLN
UniProt P12429: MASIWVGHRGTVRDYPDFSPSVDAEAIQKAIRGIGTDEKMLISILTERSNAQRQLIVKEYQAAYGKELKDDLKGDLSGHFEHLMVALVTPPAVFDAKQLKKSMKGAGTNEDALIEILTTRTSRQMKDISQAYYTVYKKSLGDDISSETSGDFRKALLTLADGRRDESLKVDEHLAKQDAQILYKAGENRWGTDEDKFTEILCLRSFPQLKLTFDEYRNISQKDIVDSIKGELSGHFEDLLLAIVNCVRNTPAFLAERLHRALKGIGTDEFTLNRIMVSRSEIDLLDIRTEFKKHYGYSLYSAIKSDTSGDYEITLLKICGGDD

Tests used:
Experiment in all cases: log2 fold change, soluble protein after heating vs DMSO (PISA); higher = thermal stabilisation; K562 lysate, 10 uM; active = over 0.2 and 3.5 SD of the protein, either way, in both replicates (recomputed)
vemurafenib = compound: CCCS(=O)(=O)Nc1ccc(F)c(C(=O)c2c[nH]c3ncc(-c4ccc(Cl)cc4)cc23)c1F [vemurafenib]
Procedure, shortened: (§1)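 Log-two fold change in thermal stability relative to solvent controls is reported from duplicates. For each sample, crude K562 extract from dounce-homogenised pellets in PBS pH 7.4 with 1 mM MgCl2, at 1 mg/mL protein, was treated with 10 μM compound for 30 min. Aliquots heated for 3 min across 48°C-58°C were pooled, brought to 0.5% NP-40 at 4°C and cleared at 21,000xg for 90 min. The supernatant was quantified by TMTpro 16plex LC-MS/MS with channel sums equalised.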

[1] = compound: CCCS(=O)(=O)Nc1ccc(F)c(C(=O)c2c[nH]c3ncc(Cl)cc23)c1F
Procedure, shortened: as §1

barasertib = compound: CCN(CCCOc1ccc2c(Nc3cc(CC(=O)Nc4cccc(F)c4)[nH]n3)ncnc2c1)CCOP(=O)(O)O [barasertib]
Procedure, shortened: as §1

[2] = compound: CC[C@@H]1C(=O)N(C)c2cnc(Nc3ccc(C(=O)NC4CCN(C)CC4)cc3OC)nc2N1C1CCCC1
Procedure, shortened: as §1

volasertib = compound: CC[C@@H]1C(=O)N(C)c2cnc(Nc3ccc(C(=O)N[C@H]4CC[C@H](N5CCN(CC6CC6)CC5)CC4)cc3OC)nc2N1C(C)C [volasertib]
Procedure, shortened: as §1

[3] = compound: CCn1c(C(=O)N(C2CC2)C2CC2)cc2c3c(ncn3C)c(Nc3cc(C)n(C)n3)nc21
Procedure, shortened: as §1

[4] = compound: CCn1cc(-c2ccnc3[nH]c(-c4cccc(CN(C)C)c4)cc23)c(-c2ccc(NC(=O)N(C)C)cc2)n1
Procedure, shortened: as §1

[5] = compound: CN1CCC(CNc2ccc3ncc(-c4cccc(OC(F)(F)F)c4)n3n2)CC1
Procedure, shortened: as §1

saracatinib = compound: CN1CCN(CCOc2cc(OC3CCOCC3)c3c(Nc4c(Cl)ccc5c4OCO5)ncnc3c2)CC1 [saracatinib]
Procedure, shortened: as §1

sotrastaurin = compound: CN1CCN(c2nc(C3=C(c4c[nH]c5ccccc45)C(=O)NC3=O)c3ccccc3n2)CC1 [sotrastaurin]
Procedure, shortened: as §1

Measured: log2 fold change

AP2B1 isoform 2 (UniProt P63010)
inactive: vemurafenib 0.017 | [1] 0.024 | barasertib -0.011 | [2] 0.023 | volasertib -0.009 | [3] 0.005 | [4] -0.036 | [5] 0.028 | saracatinib -0.023 | sotrastaurin -0.014

AMPD2 (UniProt Q01433)
inactive: vemurafenib -0.017 | [1] -0.005 | barasertib -0.016 | [2] 0.016 | volasertib 0.017 | [3] -0.003 | [4] -0.035 | [5] 0.028 | saracatinib -0.004 | sotrastaurin 0.026

ALDH9A1 isoform 3 (UniProt P49189)
inactive: vemurafenib -0.005 | [1] 0.032 | barasertib -0.003 | [2] 0.028 | volasertib -0.013 | [3] -0.003 | [4] 0.129 | [5] -0.015 | saracatinib -0.02 | sotrastaurin -0.055

ALG12 (UniProt Q9BV10)
inactive: vemurafenib -0.007 | [1] 0.03 | barasertib -0.034 | [2] 0.024 | volasertib 0.02 | [3] 0.008 | [4] 0.072 | [5] 0.069 | saracatinib 0.018

ALDOA (UniProt P04075)
inactive: vemurafenib -0.015 | [1] 0.024 | barasertib -0.053 | [2] 0.006 | volasertib 0.038 | [3] -0.019 | [4] -0.051 | [5] 0.088 | saracatinib 0.003 | sotrastaurin -0.018

ALDH1L2 (UniProt Q3SY69)
inactive: vemurafenib -0.084 | [1] -0.026 | barasertib 0.002 | [2] -0.006 | volasertib -0.045 | [3] 0.007 | [4] -0.089 | [5] -0.014 | saracatinib -0.002 | sotrastaurin 0.013

AP3M2 (UniProt P53677)
inactive: vemurafenib 0.037 | [1] 0.051 | barasertib -0.017 | [2] -0.255 | volasertib -0.037 | [3] 0.014 | [4] 0.003 | [5] -0.028 | saracatinib 0.004

ANGPTL4 (UniProt M0R3A2)
inactive: vemurafenib 0.45 | [1] -0.368 | barasertib 0.053 | [2] 0.039 | volasertib -0.176 | [3] 0.068 | [4] 0.02 | [5] -0.205

ANAPC1 (UniProt Q9H1A4)
inactive: vemurafenib 0.005 | [1] 0.041 | barasertib 0.036 | [2] 0.016 | volasertib -0.046 | [3] 0.011 | [4] -0.081 | [5] 0.019 | saracatinib 0.026 | sotrastaurin -0.003

ANXA5 (UniProt P08758)
inactive: vemurafenib -0.034 | [1] -0.011 | barasertib 0.003 | [2] -0.073 | volasertib -0.001 | [3] 0.059 | [4] 0.022 | [5] -0.064 | saracatinib -0.008 | sotrastaurin 0.024

ANAPC5 (UniProt Q9UJX4)
inactive: vemurafenib -0.001 | [1] 0.012 | barasertib 0.019 | [2] -0.004 | volasertib -0.032 | [3] 0.013 | [4] -0.016 | [5] -0.055 | saracatinib 0.021 | sotrastaurin -0.027

AP1B1 (UniProt Q10567)
inactive: vemurafenib -0.032 | [1] 0.023 | barasertib -0.007 | [2] 0.015 | volasertib 0.018 | [3] 0.005 | [4] -0.052 | [5] 0.048 | saracatinib -0.015 | sotrastaurin 0.003

AP2M1 (UniProt Q96CW1)
inactive: vemurafenib 0.016 | [1] 0.001 | barasertib 0.019 | [2] -0.009 | volasertib -0.005 | [3] -0.02 | [4] -0.088 | [5] 0.021 | saracatinib -0.028 | sotrastaurin -0.002

ANKRD28 (UniProt O15084)
inactive: vemurafenib -0.007 | [1] 0.008 | barasertib -0.006 | [2] -0.022 | volasertib -0.022 | [3] 0.02 | [4] 0.011 | [5] -0.031 | saracatinib 0.028 | sotrastaurin -0.024

ALKBH3 (UniProt Q96Q83)
inactive: vemurafenib 0.004 | [1] 0.079 | barasertib 0.023 | [2] 0.017 | volasertib -0.053 | [3] -0.066 | [4] 0.187 | [5] -0.026 | saracatinib 0.004 | sotrastaurin -0.024

ANXA7 (UniProt P20073)
inactive: vemurafenib 0.002 | [1] 0.024 | barasertib 0.016 | [2] -0.023 | volasertib -0.013 | [3] -0.002 | [4] -0.054 | [5] 0.009 | saracatinib -0.016 | sotrastaurin 0

AMD1 (UniProt P17707)
inactive: vemurafenib 0.096 | [1] -0.01 | barasertib 0.064 | [2] 0.036 | volasertib -0.014 | [3] 0.117 | [4] -0.129 | [5] 0.127 | saracatinib 0.013 | sotrastaurin -0.002

ALS2 (UniProt Q96Q42)
inactive: vemurafenib 0.031 | [1] 0.069 | barasertib -0.025 | [2] -0.006 | volasertib 0.065 | [3] 0.06 | [4] -0.106 | [5] -0.064 | saracatinib 0.001 | sotrastaurin 0.008

ANPEP (UniProt P15144)
inactive: vemurafenib 0.179 | [1] 0.023 | barasertib -0.053 | [2] 0.011 | volasertib -0.189 | [3] -0.041 | [4] -0.178 | [5] 0.161 | saracatinib 0.042 | sotrastaurin -0.029

ANP32B (UniProt Q92688)
inactive: vemurafenib 0.003 | [1] 0.043 | barasertib -0.04 | [2] 0.005 | volasertib 0.037 | [3] -0.009 | [4] -0.013 | [5] 0.046 | saracatinib -0.009 | sotrastaurin -0.004

Copied from the results shown (two entries):
ANXA7 (UniProt P20073)
inactive: vemurafenib 0.002 | [1] 0.024 | barasertib 0.016 | [2] -0.023 | volasertib -0.013 | [3] -0.002 | [4] -0.054 | [5] 0.009 | saracatinib -0.016 | sotrastaurin 0

AMD1 (UniProt P17707)
inactive: vemurafenib 0.096 | [1] -0.01 | barasertib 0.064 | [2] 0.036 | volasertib -0.014 | [3] 0.117 | [4] -0.129 | [5] 0.127 | saracatinib 0.013 | sotrastaurin -0.002

The results go on.

AP3B2 isoform 4 (UniProt Q13367)
inactive: vemurafenib -0.019 | [1] 0.017 | barasertib -0.045 | [2] 0.008 | volasertib -0.026 | [3] 0.014 | [4] -0.078 | [5] -0.006 | saracatinib 0.004 | sotrastaurin -0.011

ANXA3 (UniProt P12429)
inactive: vemurafenib -0.023 | [1] 0.009 | barasertib 0.01 | [2] -0.006 | volasertib -0.017 | [3] 0.015 | [4] -0.025 | [5] -0.011 | saracatinib -0.006 | sotrastaurin 0.046

AP1G1 isoform 2 (UniProt O43747)
inactive: vemurafenib -0.008 | [1] 0.026 | barasertib 0.014 | [2] 0.008 | volasertib 0.012 | [3] -0.027 | [4] -0.096 | [5] 0.066 | saracatinib -0.014 | sotrastaurin 0.014

AP1S1 (UniProt P61966)
inactive: vemurafenib -0.048 | [1] 0.007 | barasertib -0.025 | [2] -0.021 | volasertib 0.017 | [3] 0.084 | [4] 0.04 | [5] 0.033 | saracatinib -0.053 | sotrastaurin 0.008

ANLN (UniProt Q9NQW6)
inactive: vemurafenib -0.012 | [1] 0.019 | barasertib 0.003 | [2] 0.01 | volasertib -0.014 | [3] -0.035 | [4] -0.067 | [5] -0.014 | saracatinib 0.002 | sotrastaurin 0.009

ALKBH5 (UniProt Q6P6C2)
inactive: vemurafenib 0.026 | [1] 0.012 | barasertib 0.065 | [2] 0.052 | volasertib -0.038 | [3] -0.143 | [4] -0.071 | [5] 0.019 | saracatinib 0.017 | sotrastaurin -0.056

ANKRD30B (UniProt Q9BXX2)
inactive: vemurafenib 0.136 | [1] 0.024 | barasertib 0.047 | [2] 0.012 | volasertib 0.003 | [3] -0.055 | [5] 0.281 | saracatinib 0.04
active: [4] -0.755

AP2A2 isoform 2 (UniProt O94973)
inactive: vemurafenib 0.012 | [1] 0.061 | barasertib 0.104 | [2] 0.011 | volasertib 0.004 | [3] -0.017 | [4] -0.044 | [5] 0.016 | saracatinib -0.022 | sotrastaurin 0.04
